For at least one compound, name, drawing or mass did not settle the structure.
Tested on: VSV-SARS-CoV-2 (SARS-CoV-2 spike pseudotyped VSV)
Type: cell-based

Q: For CC(=O)N[C@H]1C([C@H](O)[C@H](O)CO)O[C@](O)(C(=O)O)C[C@H]1O (stereo partly shown) [SA, acetylneuraminic acid], which “reduction of VSV-SARS-CoV-2 infectivity” value is on record?
A: did not significantly reduce

Reference: patent publication US20250134921A1, “[…] ACID GLY[…] THEIR USES FOR TREATING INFECTIOUS DISEASES” (priority 2021, published 2025)
